The text below walks through data of PubChem BioAssay AID2685 (National Center for Advancing Translational Sciences (NCATS), 2010).

This is one part of the list. Further columns of the screen follow, without active or inactive calls. Most of these compounds were active or inconclusive in the main read-out, so they are no random draw. Potencies come from curve fits of mixed quality, noted in brackets.

The assay can be described thus: qHTS Assay for Lipid Storage Modulators in Drosophila S3 Cells.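 For cell number change: cells counted by Cell Tracker Red CMTPX staining in the red channel.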 As to conditions: BODIPY lipid droplet fluorescence, 18-24 h; for cell number change: measured here: cell count max response, cells fed with added oleic acid. The gist of the method: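 Laser-scanning cytometry quantifies lipid droplet accumulation (500–530 nm total intensity; droplet/cell object ratio) in oleic acid-fed (400 uM added) Drosophila S3 cells treated with a concentration series. 20 uM Triacsin C defined 100% inhibition.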

Where [1] appears, read: measured here: lipid fluorescence (Fed channel) AC50, cells fed with added oleic acid.
[2] abbreviates: measured here: cell number channel AC50, cells fed with added oleic acid.

For orientation: AC50 means the midpoint of the concentration-response curve, whichever way the signal moves. `COc1ccc(NC(=O)COc2ccc(C(=O)NC3CCCc4ccccc43)cc2OC)cc1` (configuration not stated): the cell number change stood at 17.9%. In addition, under setting [1], the AC50 is 3.26 µM [rising, single point].

As for `Cc1ccc(C(=O)Nc2ccc(S(=O)(=O)N3CCCC3)cc2)s1`, the cell number change is -19.1%. Besides, the AC50 under setting [1] was 29.1 µM [rising, single point]. In the case of `COc1cc(NC(=O)c2ccc([N+](=O)[O-])o2)ccc1NC(=O)c1ccco1`, under setting [1], the concentration at half-maximal activity (AC50) is 10.3 µM [falling, partial curve]. For the compound `NNC(=S)Nc1cccc(-c2n[nH]c(=S)o2)c1`, the cell number change was found to be 14.7%. For the same compound, the AC50 under setting [1] was 0.651 µM [falling, single point]. On to `CCn1c(=N)n(CC(=O)c2cccc(OC)c2)c2ccccc21`, for which the cell number change worked out at 6.19%. The AC50 under setting [2] was 0.92 µM [rising, full curve]. Further, the AC50 under setting [1] is 1.46 µM [rising, partial curve].

Consider `c1ccc2[nH]c(NCc3ccc4c(c3)OCO4)nc2c1`, for which the cell number change was -37.8%. Besides, under setting [2], the AC50 is 2.06 µM [falling, single point]. With `COc1ccccc1NC(=O)CSc1nnc(CNC(=O)c2cccs2)o1`, the cell number change was 20.4%. Further, the AC50 under setting [2] was 0.00411 µM [rising, full curve, poor fit]. For the compound `Cc1cccc(NC(=O)NNC(=O)c2cc3occc3[nH]2)c1C`, the cell number change was -1.52%.

Consider `CC(=O)NC(Cc1ccccc1C)C(=O)NC1CCN(C(=O)c2cccc(C)c2)CC1` (configuration not stated), for which the cell number change worked out at 28.5%. Besides, under setting [1], the AC50 was 20.6 µM [rising, partial curve, poor fit]. Consider `CC(=O)c1ccc(NS(=O)(=O)c2ccc(N)cc2)cc1`, for which the cell number change was -3.15%. Moreover, under setting [1], the AC50 was 0.651 µM [falling, single point].

As to `CCc1cc(C(=O)Nc2nc(-c3ccccn3)cs2)sc1C`, the AC50 under setting [1] is 6.51 µM [falling, single point].

For `COc1ccc(O)c(/C=C2/SC(=S)N(Cc3ccccc3)C2=O)c1`, the cell number change is -48.9%. Further, the AC50 under setting [1] was 29.1 µM [falling, single point]. Take `O=S(=O)(Nc1cccc2nsnc12)c1ccccc1`: the cell number change is 78.6%. Besides, the AC50 under setting [2] was 10.3 µM [rising, partial curve]. Consider `CC1(C)CC(=O)C=C(N2CCOCC2)C1`, for which the cell number change is -40.7%. The half-maximal activity concentration (AC50) under setting [2] was 16.4 µM [falling, single point]. In addition, under setting [1], the AC50 is 14.6 µM [falling, partial curve].

For the compound `O=C(c1cc2ccccc2o1)N(C1CC1)C1(C(=O)Nc2ccccc2)CCCC1`, the cell number change was -11.5%. `O=S(=O)(CC(CN1CCCCC1)N1CCCCC1)c1ccccc1` (configuration not stated): the cell number change amounted to 3.07%. Also, the AC50 under setting [1] is 2.31 µM [rising, single point]. Consider `O=C(COC(=O)c1cc([N+](=O)[O-])ccc1N1CCOCC1)NCc1ccc(F)cc1`, for which the cell number change was -19.8%. In addition, the AC50 under setting [1] is 25.9 µM [falling, single point]. Take `CN(C)CCNC(=O)NC(=O)c1ccc(Cl)cc1`: the cell number change was -22.1%. Also, the AC50 under setting [1] was 0.731 µM [falling, full curve]. Turning to `CC(C)(C)CN1CCN(CCCc2ccccc2)C(CCO)C1` (configuration not stated), the cell number change is -0.293%. Besides, the AC50 under setting [1] was 0.206 µM [rising, full curve, poor fit]. As to `Cc1ccc2nc(-c3ccc(O)c(O)c3)cn2c1`, the cell number change is -27.9%. Moreover, under setting [1], the AC50 was 32.6 µM [falling, single point]. In the case of `COc1cccc(C(=O)NCCSc2ccc(C)cc2)c1`, the AC50 under setting [2] was 0.0103 µM [falling, full curve, poor fit] and the half-maximal activity concentration (AC50) under setting [1] was 0.58 µM [falling, full curve, poor fit]. As for `CC1CCCN(S(=O)(=O)c2ccc(N(C(=O)c3cnccn3)C(C(=O)NC3CCCCC3)c3cccs3)cc2)C1` (configuration not stated), the cell number change is -3.75%. For `COC(=O)CCNS(=O)(=O)c1ccc2nsnc2c1`, the cell number change was determined as 47.7%. Also, the AC50 under setting [2] is 25.9 µM [rising, single point]. Besides, the AC50 under setting [1] was 23.1 µM [rising, partial curve, poor fit].

Consider `O=C(c1ccccc1)c1coc2ccc(O)c(Cl)c12`, for which the cell number change is -36.9%. The AC50 under setting [2] is 2.06 µM [falling, full curve, poor fit]. Under setting [1], the AC50 is 20.6 µM [falling, partial curve]. Regarding `Cc1ccccc1Nc1nnc(SCc2cc([N+](=O)[O-])cc3c2OCOC3)s1`, the AC50 under setting [2] is 0.461 µM [rising, partial curve] and the AC50 under setting [1] is 0.92 µM [rising, partial curve].

`CC(C)n1cc(CN2CCC(C(=O)Nc3cccc(-c4cccc(Cl)c4)c3)CC2)cn1`: the cell number change is -24.6%. Further, the concentration at half-maximal activity (AC50) under setting [1] was 6.51 µM [rising, single point]. Turning to `CC(NC(=O)NNC(N)=S)(C(F)(F)F)C(F)(F)F`, the cell number change stood at 14%. Moreover, the AC50 under setting [2] was 4.11 µM [rising, partial curve, poor fit]. The AC50 under setting [1] was 2.06 µM [rising, partial curve].

Consider `O=C(COC(=O)CNS(=O)(=O)c1ccc(Cl)cc1)NC1CCCCC1`, for which the cell number change was -49.7%. Under setting [2], the AC50 is 14.6 µM [falling, single point]. Under setting [1], the AC50 is 0.291 µM [rising, full curve]. With `CCOC(=O)CSc1nc(NCc2ccco2)c2ccccc2n1`, the cell number change is -16.3%. For the same compound, the AC50 under setting [1] is 0.366 µM [falling, partial curve]. As to `CN(CCC#N)S(=O)(=O)c1ccc2[nH]cc(C(=O)NCCc3ccccc3)c(=O)c2c1`, the cell number change came out at 20.7%.

Take `O=C1c2ccccc2C(=O)N1Cc1cnc(N2CCN(c3ccccc3)CC2)s1`: the AC50 was 0.146 µM [falling, full curve, poor fit] under setting [2] and 0.146 µM [falling, full curve, poor fit] under setting [1]. With `Cc1ccc(/C=N/N=C/c2ccc(C)s2)s1`, the cell number change is 25.1%. Moreover, the AC50 under setting [1] is 13 µM [rising, partial curve]. Regarding `CCOC(=O)C1(Cc2ccccc2)CCN(Cc2cccc3nccnc23)CC1`, the cell number change came to 27.2%. Further, the AC50 under setting [1] was 1.03 µM [rising, full curve, poor fit]. Regarding `O=C(NCc1cc([N+](=O)[O-])ccc1O)c1cc(-c2ccncc2)nc2ccccc12`, the cell number change was found to be 8.65%. Also, the AC50 under setting [1] was 0.206 µM [rising, full curve, poor fit]. In the case of `COc1cc(NC(=O)COc2cccc3c2OC(C)(C)C3)cc(OC)c1OC`, the cell number change was -20.2%. For the same compound, the AC50 under setting [1] is 1.84 µM [falling, partial curve, poor fit].

As for `Cc1ccc(N(Cc2cc3ccccc3[nH]c2=O)C(=O)c2cccs2)cc1`, the cell number change was found to be 100%. Moreover, under setting [2], the AC50 was 29.1 µM [rising, single point]. As to `O=C(Nc1ccc(N2CCOCC2)cc1)c1ccc(Cl)cc1N1CCCC1=O`, the cell number change was -4.23%. The AC50 under setting [1] was 29.1 µM [rising, single point].

As to `COc1ccc(-c2nc3ncccn3c2Nc2ccccc2)cc1`, the cell number change amounted to 3.26%. With `CC(=O)Oc1ccc2c(=O)c(Oc3ccccc3[N+](=O)[O-])coc2c1`, the cell number change was -27.7%. Besides, the AC50 under setting [1] is 0.13 µM [falling, full curve, poor fit].

For the compound `COc1ccc(C(=O)N2CCCc3ccccc32)cc1Br`, the cell number change is -22.8%. In addition, the AC50 under setting [1] was 20.6 µM [rising, single point]. Regarding `COc1ccc2oc(=O)c(C(=O)NCc3ccccc3)cc2c1`, the cell number change was determined as 8.55%. Moreover, the AC50 under setting [1] was 0.411 µM [rising, partial curve, poor fit].

For `Cc1ccc(C2C3C(=O)N(c4ccc(C)cc4)C(=O)C3N3CCCN23)cc1` (configuration not stated), under setting [1], the AC50 was 0.0103 µM [rising, full curve, poor fit].

As for `CC(=O)Nc1ccccc1C(=O)N1CC2(C)CC1CC(C)(C)C2` (configuration not stated), the cell number change was -14.7%. With `O=C(NCc1ccccc1)Nc1cccn(Cc2ccc(Cl)cc2)c1=O`, the cell number change amounted to 26.3%. In addition, under setting [2], the AC50 is 3.66 µM [rising, full curve, poor fit]. For `CCOc1ccc2cc(C#N)c(SCC(=O)OC)nc2c1`, the cell number change was -12.6%. Consider `Cc1ccc(Nc2nnc(SCC(=O)NC(Cc3c[nH]c4ccccc34)C(=O)O)s2)cc1` (configuration not stated), for which the cell number change is 13.1%. Besides, the AC50 under setting [1] was 7.31 µM [rising, single point]. As to `CCn1c(=O)c(C(=O)NNS(=O)(=O)c2ccc(NC(=O)OC)cc2)c(O)c2ccccc21`, the cell number change is 11.1%. For `CCC(C)[C@H](NC(=O)N1CC(=O)Nc2ccccc21)C(=O)NC(C)CCc1ccccc1` (some centres not stated), the AC50 under setting [2] was 1.3 µM [falling, partial curve]. With `CCCN1CCC(N2CCN(c3cccc(C(F)(F)F)c3)CC2)CC1`, the cell number change is -14.4%. Further, under setting [1], the AC50 was 18.4 µM [falling, single point].

As for `Cc1[nH]n(-c2ccccc2)c(=O)c1/C=N/N1C(=O)c2ccc3c4c(ccc(c24)C1=O)CC3`, the cell number change was 1.66%. For the same compound, the AC50 under setting [1] was 13 µM [falling, single point]. Turning to `O=C(/C=C/c1nc2ccccc2s1)N1CCCCCC1`, the cell number change came out at 9.17%. Consider `COC(=O)c1cccc(Oc2cccc(C(F)(F)F)c2)n1`, for which the AC50 under setting [2] is 3.66 µM [falling, single point]. In the case of `CC12CC3(C)CC(C)(C1)CC(C(=O)NCCc1ccc(S(N)(=O)=O)cc1)(C2)C3`, the cell number change was 50%. For the same compound, the AC50 under setting [2] is 3.66 µM [rising, full curve]. `COC1=CC(=O)OC12CCCCC2`: the cell number change was -45.9%. For the same compound, the AC50 under setting [2] is 1.46 µM [falling, full curve]. Moreover, the AC50 under setting [1] was 16.4 µM [falling, partial curve]. For the compound `O=C1c2ccccc2NC(c2ccc(-c3cccc(F)c3)o2)N1O` (configuration not stated), the cell number change is -38%. Moreover, under setting [2], the AC50 is 29.1 µM [falling, single point]. On to `CC(=O)OC(C(=O)NCc1ccco1)c1ccncc1` (configuration not stated), for which the cell number change was -9.99%. Turning to `CN(C)c1ncc(S(=O)(=O)c2ccccc2)c(N)n1`, the cell number change was 140%. For the same compound, under setting [2], the AC50 is 29.1 µM [rising, partial curve]. In addition, the AC50 under setting [1] is 23.1 µM [rising, partial curve]. For `Cc1cc(C(=O)NNCc2ccccc2)no1`, the concentration at half-maximal activity (AC50) under setting [2] was 6.51 µM [rising, single point] and the AC50 under setting [1] was 6.51 µM [rising, single point]. For the compound `COc1cc(/C=C2\SC(=S)N(NC(=O)c3ccc(O)c(OC)c3)C2=O)ccc1O`, the cell number change was -85.2%. The AC50 under setting [2] was 18.4 µM [falling, single point].

Consider `CC1CC(O)C(C)CN1` (configuration not stated), for which the cell number change is -55.5%. Moreover, the AC50 under setting [2] is 0.103 µM [falling, full curve]. The AC50 under setting [1] was 0.116 µM [falling, full curve]. For `O=C(CSc1nc(C2CC2)nc2c1cnn2-c1ccccc1)Nc1c[nH]c(=O)[nH]c1=O`, the cell number change was -50.2%. For the same compound, under setting [2], the concentration at half-maximal activity (AC50) was 29.1 µM [falling, single point]. Also, the AC50 under setting [1] is 18.4 µM [falling, single point].
